# The supplement of paper PMC8728848
# Some of the results follow.
# How the values were obtained:
# Assay in all cases: glycan array binding signal (z-score within array); higher = stronger binding
# Conditions in all cases: glycan notation: IUPAC condensed, linker removed
# [1] = target: Neu5Ac(a2-3)Gal(b1-3)GalNAc
# Procedure, shortened: (§1)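 Glycan array binding is given as a within-array Z-score, which can be read as non-binding when negative. The arrays, 3228 of them, came from the Consortium for Functional Glycomics database and were retained only where the protein sequence was available. Z-scores were averaged across arrays of the same protein sequence at different concentrations or buffers and across linkers.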
# [2] = target: Neu5Ac(a2-3)Gal(b1-3)GalNAc(b1-3)Gal(a1-4)Gal(b1-4)Glc
# Procedure, shortened: as §1
# [3] = target: Neu5Ac(a2-3)Gal(b1-3)GalNAc(b1-4)[Neu5Ac(a2-3)]Gal(b1-4)Glc
# Procedure, shortened: as §1
# [4] = target: Neu5Ac(a2-3)Gal(b1-3)GalNAc(b1-4)[Neu5Ac(a2-8)Neu5Ac(a2-3)]Gal(b1-4)Glc
# Procedure, shortened: as §1
# [5] = target: Neu5Ac(a2-3)Gal(b1-3)GalNAc6S
# Procedure, shortened: as §1
# [6] = target: Neu5Ac(a2-3)Gal(b1-3)GlcNAc
# Procedure, shortened: as §1
# [7] = target: Neu5Ac(a2-3)Gal(b1-3)GlcNAc(b1-2)Man
# Procedure, shortened: as §1
# [8] = target: Neu5Ac(a2-3)Gal(b1-3)GlcNAc(b1-2)Man(a1-3)[GlcNAc(b1-4)][Neu5Ac(a2-3)Gal(b1-3)GlcNAc(b1-2)Man(a1-6)]Man(b1-4)GlcNAc(b1-4)GlcNAc
# Procedure, shortened: as §1
# [9] = target: Neu5Ac(a2-3)Gal(b1-3)GlcNAc(b1-2)Man(a1-3)[Neu5Ac(a2-3)Gal(b1-3)GlcNAc(b1-2)Man(a1-6)]Man(b1-4)GlcNAc(b1-4)GlcNAc
# Procedure, shortened: as §1
# [10] = target: Neu5Ac(a2-3)Gal(b1-3)GlcNAc(b1-3)Gal(b1-3)GlcNAc
# Procedure, shortened: as §1
# [11] = target: Neu5Ac(a2-3)Gal(b1-3)GlcNAc(b1-3)Gal(b1-4)GlcNAc
# Procedure, shortened: as §1
# [12] = target: Neu5Ac(a2-3)Gal(b1-3)GlcNAc(b1-3)GalNAc
# Procedure, shortened: as §1
# [13] = target: Neu5Ac(a2-3)Gal(b1-3)GlcNAc(b1-4)Gal(b1-4)Glc
# Procedure, shortened: as §1
# [14] = target: Neu5Ac(a2-3)Gal(b1-3)GlcNAc(b1-6)GalNAc
# Procedure, shortened: as §1
# [15] = target: Neu5Ac(a2-3)Gal(b1-3)GlcNAc6S
# Procedure, shortened: as §1
# [16] = target: Neu5Ac(a2-3)Gal(b1-3)[Fuc(a1-4)]GlcNAc
# Procedure, shortened: as §1
# [17] = target: Neu5Ac(a2-3)Gal(b1-3)[Fuc(a1-4)]GlcNAc(b1-3)Gal(b1-3)[Fuc(a1-4)]GlcNAc
# Procedure, shortened: as §1
# [18] = target: Neu5Ac(a2-3)Gal(b1-3)[Fuc(a1-4)]GlcNAc(b1-3)Gal(b1-4)[Fuc(a1-3)]GlcNAc
# Procedure, shortened: as §1
# [19] = target: Neu5Ac(a2-3)Gal(b1-3)[GlcNAc(b1-6)]GalNAc
# Procedure, shortened: as §1
# [20] = target: Neu5Ac(a2-3)Gal(b1-3)[Neu5Ac(a2-6)]GalNAc
# Procedure, shortened: as §1
# [21] = target: Neu5Ac(a2-3)Gal(b1-3)[Neu5Ac(a2-6)]GlcNAc(b1-3)[Fuc(a1-3)[Gal(b1-4)]GlcNAc(b1-6)]Gal(b1-4)Glc
# Procedure, shortened: as §1
# [22] = target: Neu5Ac(a2-3)Gal(b1-3)]Neu5Ac(a2-3)Gal(b1-4)]GlcNAc
# Procedure, shortened: as §1
# Neu5Ac(a2-3)Gal(b1-4)Glc = target: Neu5Ac(a2-3)Gal(b1-4)Glc
# Procedure, shortened: as §1
# [23] = target: Neu5Ac(a2-3)Gal(b1-4)GlcNAc
# Procedure, shortened: as §1
# [24] = target: Neu5Ac(a2-3)Gal(b1-4)GlcNAc(b1-2)Man
# Procedure, shortened: as §1
# [25] = target: Neu5Ac(a2-3)Gal(b1-4)GlcNAc(b1-2)Man(a1-3)[GlcNAc(b1-4)][Neu5Ac(a2-3)Gal(b1-4)GlcNAc(b1-2)Man(a1-6)]Man(b1-4)GlcNAc(b1-4)GlcNAc
# Procedure, shortened: as §1
# [26] = target: Neu5Ac(a2-3)Gal(b1-4)GlcNAc(b1-2)Man(a1-3)[Neu5Ac(a2-3)Gal(b1-4)GlcNAc(b1-2)Man(a1-6)]Man(b1-4)GlcNAc(b1-4)GlcNAc
# Procedure, shortened: as §1
# [27] = target: Neu5Ac(a2-3)Gal(b1-4)GlcNAc(b1-2)Man(a1-3)[Neu5Ac(a2-3)Gal(b1-4)GlcNAc(b1-2)Man(a1-6)]Man(b1-4)GlcNAc(b1-4)[Fuc(a1-6)]GlcNAc
# Procedure, shortened: as §1
# [28] = target: Neu5Ac(a2-3)Gal(b1-4)GlcNAc(b1-2)Man(a1-3)[Neu5Ac(a2-6)Gal(b1-4)GlcNAc(b1-2)Man(a1-6)]Man(b1-4)GlcNAc(b1-4)GlcNAc
# Procedure, shortened: as §1
# [29] = target: Neu5Ac(a2-3)Gal(b1-4)GlcNAc(b1-2)[Neu5Ac(a2-3)Gal(b1-4)GlcNAc(b1-4)]Man(a1-3)[GlcNAc(b1-4)][Neu5Ac(a2-3)Gal(b1-4)GlcNAc(b1-2)[Neu5Ac(a2-3)Gal(b1-4)GlcNAc(b1-6)]Man(a1-6)]Man(b1-4)GlcNAc(b1-4)GlcNAc
# Procedure, shortened: as §1
# [30] = target: Neu5Ac(a2-3)Gal(b1-4)GlcNAc(b1-2)[Neu5Ac(a2-3)Gal(b1-4)GlcNAc(b1-4)]Man(a1-3)[GlcNAc(b1-4)][Neu5Ac(a2-3)Gal(b1-4)GlcNAc(b1-4)Man(a1-6)]Man(b1-4)GlcNAc(b1-4)GlcNAc
# Procedure, shortened: as §1
# [31] = target: Neu5Ac(a2-3)Gal(b1-4)GlcNAc(b1-2)[Neu5Ac(a2-3)Gal(b1-4)GlcNAc(b1-6)]Man(a1-6)[Neu5Ac(a2-3)Gal(b1-4)GlcNAc(b1-2)Man(a1-3)]Man(b1-4)GlcNAc(b1-4)GlcNAc
# Procedure, shortened: as §1
# [32] = target: Neu5Ac(a2-3)Gal(b1-4)GlcNAc(b1-2)[Neu5Ac(a2-3)Gal(b1-4)GlcNAc(b1-6)]Man(a1-6)[Neu5Ac(a2-3)Gal(b1-4)GlcNAc(b1-2)Man(a1-3)][GlcNAc(b1-4)]Man(b1-4)GlcNAc(b1-4)GlcNAc
# Procedure, shortened: as §1
# [33] = target: Neu5Ac(a2-3)Gal(b1-4)GlcNAc(b1-3)Gal
# Procedure, shortened: as §1
# [34] = target: Neu5Ac(a2-3)Gal(b1-4)GlcNAc(b1-3)Gal(b1-3)GlcNAc
# Procedure, shortened: as §1
# [35] = target: Neu5Ac(a2-3)Gal(b1-4)GlcNAc(b1-3)Gal(b1-4)GlcNAc
# Procedure, shortened: as §1
# [36] = target: Neu5Ac(a2-3)Gal(b1-4)GlcNAc(b1-3)Gal(b1-4)GlcNAc(b1-2)Man(a1-3)[Neu5Ac(a2-3)Gal(b1-4)GlcNAc(b1-3)Gal(b1-4)GlcNAc(b1-2)Man(a1-6)]Man(b1-4)GlcNAc(b1-4)GlcNAc
# Procedure, shortened: as §1
# [37] = target: Neu5Ac(a2-3)Gal(b1-4)GlcNAc(b1-3)Gal(b1-4)GlcNAc(b1-3)Gal(b1-4)GlcNAc
# Procedure, shortened: as §1
# [38] = target: Neu5Ac(a2-3)Gal(b1-4)GlcNAc(b1-3)Gal(b1-4)GlcNAc(b1-3)Gal(b1-4)GlcNAc(b1-2)Man(a1-3)[Neu5Ac(a2-3)Gal(b1-4)GlcNAc(b1-3)Gal(b1-4)GlcNAc(b1-3)Gal(b1-4)GlcNAc(b1-2)Man(a1-6)]GalNAc
# Procedure, shortened: as §1
# [39] = target: Neu5Ac(a2-3)Gal(b1-4)GlcNAc(b1-3)Gal(b1-4)GlcNAc(b1-3)GalNAc
# Procedure, shortened: as §1
# [40] = target: Neu5Ac(a2-3)Gal(b1-4)GlcNAc(b1-3)Gal(b1-4)GlcNAc(b1-3)[Neu5Ac(a2-3)Gal(b1-4)GlcNAc(b1-3)Gal(b1-4)GlcNAc(b1-6)]GalNAc
# Procedure, shortened: as §1
# [41] = target: Neu5Ac(a2-3)Gal(b1-4)GlcNAc(b1-3)Gal(b1-4)GlcNAc(b1-6)[Gal(b1-3)]GalNAc
# Procedure, shortened: as §1
# [42] = target: Neu5Ac(a2-3)Gal(b1-4)GlcNAc(b1-3)Gal(b1-4)[Fuc(a1-3)]GlcNAc
# Procedure, shortened: as §1
# [43] = target: Neu5Ac(a2-3)Gal(b1-4)GlcNAc(b1-3)GalNAc
# Procedure, shortened: as §1
# [44] = target: Neu5Ac(a2-3)Gal(b1-4)GlcNAc(b1-3)[Neu5Ac(a2-3)Gal(b1-4)GlcNAc(b1-6)]GalNAc
# Procedure, shortened: as §1
binder,measurement,setting,value
EULS2 M1 (Oryza sativa) (protein) MVYCRANPNYAMTARNGAVVLAPANPKDEYQHWIKDMRWSTSIKDEEGYPAFALVNKATGQAIKHSLGQSHPVRLVPYNPEVMDESVLWTESRDVGNGFRCIRMVNNIYLNFDAFHGDKYHGGVRDGTDIVLWKLCEGDNQRWKIQPYYILEQKLISEEDLNSAVDHHHHHH,glycan array binding signal (z-score),[1],-0.371
same,glycan array binding signal (z-score),[2],-0.132
same,glycan array binding signal (z-score),[3],0.474
same,glycan array binding signal (z-score),[4],-0.657
same,glycan array binding signal (z-score),[5],1.3
same,glycan array binding signal (z-score),[6],-0.972
same,glycan array binding signal (z-score),[7],0.098
same,glycan array binding signal (z-score),[8],-0.389
same,glycan array binding signal (z-score),[9],0.791
same,glycan array binding signal (z-score),[10],-1.01
same,glycan array binding signal (z-score),[11],-0.217
same,glycan array binding signal (z-score),[12],-0.164
same,glycan array binding signal (z-score),[13],0.491
same,glycan array binding signal (z-score),[14],0.348
same,glycan array binding signal (z-score),[15],-0.239
same,glycan array binding signal (z-score),[16],-0.739
same,glycan array binding signal (z-score),[17],-0.673
same,glycan array binding signal (z-score),[18],1.75
same,glycan array binding signal (z-score),[19],-1.12
same,glycan array binding signal (z-score),[20],0.067
same,glycan array binding signal (z-score),[21],-0.53
same,glycan array binding signal (z-score),[22],-0.6
same,glycan array binding signal (z-score),Neu5Ac(a2-3)Gal(b1-4)Glc,-0.186
same,glycan array binding signal (z-score),[23],-0.548
same,glycan array binding signal (z-score),[24],0.285
same,glycan array binding signal (z-score),[25],0.176
same,glycan array binding signal (z-score),[26],-2.21
same,glycan array binding signal (z-score),[27],0.573
same,glycan array binding signal (z-score),[28],-0.38
same,glycan array binding signal (z-score),[29],-0.833
same,glycan array binding signal (z-score),[30],-0.368
same,glycan array binding signal (z-score),[31],0.399
same,glycan array binding signal (z-score),[32],-0.305
same,glycan array binding signal (z-score),[33],-0.337
same,glycan array binding signal (z-score),[34],-0.209
same,glycan array binding signal (z-score),[35],-0.197
same,glycan array binding signal (z-score),[36],0.426
same,glycan array binding signal (z-score),[37],-0.07
same,glycan array binding signal (z-score),[38],1.33
same,glycan array binding signal (z-score),[39],0.072
same,glycan array binding signal (z-score),[40],0.135
same,glycan array binding signal (z-score),[41],-0.334
same,glycan array binding signal (z-score),[42],-0.885
same,glycan array binding signal (z-score),[43],-0.009
same,glycan array binding signal (z-score),[44],0.003

# Reformatted bar-delimited: entries from further up
binder | measurement | setting | value
EULS2 M1 (Oryza sativa) (protein) MVYCRANPNYAMTARNGAVVLAPANPKDEYQHWIKDMRWSTSIKDEEGYPAFALVNKATGQAIKHSLGQSHPVRLVPYNPEVMDESVLWTESRDVGNGFRCIRMVNNIYLNFDAFHGDKYHGGVRDGTDIVLWKLCEGDNQRWKIQPYYILEQKLISEEDLNSAVDHHHHHH | glycan array binding signal (z-score) | [13] | 0.491
same | glycan array binding signal (z-score) | [14] | 0.348
same | glycan array binding signal (z-score) | [15] | -0.239
same | glycan array binding signal (z-score) | [16] | -0.739
same | glycan array binding signal (z-score) | [17] | -0.673
same | glycan array binding signal (z-score) | [18] | 1.75
same | glycan array binding signal (z-score) | [19] | -1.12
same | glycan array binding signal (z-score) | [20] | 0.067
same | glycan array binding signal (z-score) | [21] | -0.53
same | glycan array binding signal (z-score) | [22] | -0.6
same | glycan array binding signal (z-score) | Neu5Ac(a2-3)Gal(b1-4)Glc | -0.186
same | glycan array binding signal (z-score) | [23] | -0.548
same | glycan array binding signal (z-score) | [24] | 0.285
